No constants are given. Whether binding was seen depends on the method and setting. Binding seen in cells or lysates may run through a third protein. Some entries that bind do so weakly or less than the wild type.
B1: RPN1 (ribophorin I), endogenous (protein, UniProt P04843 24-607)
chain: ASSEAPPLINEDVKRTVDLSSHLAKVTAEVVLAHLGGGSTSRATSFLLALEPELEARLAHLGVQVKGEDEEENNLEVRETKIKGKSGRFFTVKLPVALDPGAKISVIVETVYTHVLHPYPTQITQSEKQFVVFEGNHYFYSPYPTKTQTMRVKLASRNVESYTKLGNPTRSEDLLDYGPFRDVPAYSQDTFKVHYENNSPFLTITSMTRVIEVSHWGNIAVEENVDLKHTGAVLKGPFSRYDYQRQPDSGISSIRSFKTILPAAAQDVYYRDEIGNVSTSHLLILDDSVEMEIRPRFPLFGGWKTHYIVGYNLPSYEYLYNLGDQYALKMRFVDHVFDEQVIDSLTVKIILPEGAKNIEIDSPYEISRAPDELHYTYLDTFGRPVIVAYKKNLVEQHIQDIVVHYTFNKVLMLQEPLLVVAAFYILFFTVIIYVRLDFSITKDPAAEARMKVACITEQVLTLVNKRIGLYRHFDETVNRYKQSRDISTLNSGKKSLETEHKALTSEIALLQSRLKTEGSDLCDRVSEMQKLDAQVKELVLKSAVEAERLVAGKLKKDTYIENEKLISGKRQELVTKIDHILDAL
B2: CYB5R3 (cytochrome b5 reductase 3), endogenous (enzyme, UniProt P00387 1-301)
chain: MGAQLSTLGHMVLFPVWFLYSLLMKLFQRSTPAITLESPDIKYPLRLIDREIISHDTRRFRFALPSPQHILGLPVGQHIYLSARIDGNLVVRPYTPISSDDDKGFVDLVIKVYFKDTHPKFPAGGKMSQYLESMQIGDTIEFRGPSGLLVYQGKGKFAIRPDKKSNPIIRTVKSVGMIAGGTGITPMLQVIRAIMKDPDDHTVCHLLFANQTEKDILLRPELEELRNKHSARFKLWYTLDRAPEAWDYGQGFVNEEMIRDHLPPPEEEPLVLMCGPPPMIQYACLPNLDHVGHPTERCFVF
B3: EIF2A, endogenous (protein, UniProt Q9BY44 1-585)
chain: MAPSTPLLTVRGSEGLYMVNGPPHFTESTVFPRESGKNCKVCIFSKDGTLFAWGNGEKVNIISVTNKGLLHSFDLLKAVCLEFSPKNTVLATWQPYTTSKDGTAGIPNLQLYDVKTGTCLKSFIQKKMQNWCPSWSEDETLCARNVNNEVHFFENNNFNTIANKLHLQKINDFVLSPGPQPYKVAVYVPGSKGAPSFVRLYQYPNFAGPHAALANKSFFKADKVTMLWNKKATAVLVIASTDVDKTGASYYGEQTLHYIATNGESAVVQLPKNGPIYDVVWNSSSTEFCAVYGFMPAKATIFNLKCDPVFDFGTGPRNAAYYSPHGHILVLAGFGNLRGQMEVWDVKNYKLISKPVASDSTYFAWCPDGEHILTATCAPRLRVNNGYKIWHYTGSILHKYDVPSNAELWQVSWQPFLDGIFPAKTITYQAVPSEVPNEEPKVATAYRPPALRNKPITNSKLHEEEPPQNMKPQSGNDKPLSKTALKNQRKHEAKKAAKQEARSDKSPDLAPTPAPQSTPRNTVSQSISGDPEIDKKIKNLKKKLKAIEQLKEQAATGKQLEKNQLEKIQKETALLQELEDLELGI

Protein sequences, listed by entry. Tags and fused reporters are not part of them. Residues count along the entry.
UniProt P03186, residues 1-235: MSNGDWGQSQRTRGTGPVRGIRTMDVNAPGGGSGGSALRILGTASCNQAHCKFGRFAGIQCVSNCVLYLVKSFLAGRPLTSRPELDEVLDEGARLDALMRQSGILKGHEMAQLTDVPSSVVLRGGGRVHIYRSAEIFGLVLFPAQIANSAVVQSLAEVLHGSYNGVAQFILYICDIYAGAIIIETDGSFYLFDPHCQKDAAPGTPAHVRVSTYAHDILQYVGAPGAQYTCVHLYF

Target: FLAG-BPLF1 (vDUB, N-terminal domain of the Epstein-Barr virus large tegument protein BPLF1) (Epstein-Barr virus) (UniProt P03186)
Assay: co-IP; HEK293T harvested 24 h after transfection; lysates incubated with anti-FLAG agarose affinity gel for 3 h at 4°C; immunoblot

Binder | binding
B1 | binds
B2 | binds
B3 | binds
